Source: patent publication US12551482B2, “Aurora kinase inhibitors” (The Regents of the University of California, priority 2013, dated 2026)

System: SK-N-BE(2) MYCN-amplified neuroblastoma cells
Assay: Viability at 72 hrs, CyQUANT assay
Assay type: cell-based
Details: Homo sapiens, SKNBE2, SK-N-BE(2) cells, FIG. 1E, read-out: cellular EC50 at 72 hrs
Method: Neuroblastoma cells were treated for the indicated time, trypsinized, washed, stained with Dylight 800 at 0.3 μg/mL (Pierce, 46421), fixed with 1.5% PFA, and permeabilized with 100% methanol. Cells were then stained with antibodies against p-MPM2 (Millipore, 16-155), p-pan-Aurora (Cell Signaling, 2914), MYCN (Thermo, PA5-17403), rabbit IgG (Invitrogen, A10542), or mouse IgG (BioLegend, 405307). Cells were stained with DAPI at 0.3 μg/mL (Invitrogen, D21490) and analyzed on the BD LSR II flow cytometer. For cell cycle analysis, cells were stimulated with EdU for 2 hours prior to harvest, then probed using the Click-iT EdU Flow Cytometry Assay Kit (Invitrogen, C10424). Cells were stained with propidium iodide (BD, 556547) and analyzed on the BD FACSCalibur flow cytometer. Data was gated using Cytobank. For viability studies, neuroblastoma cells were plated in 96-well plates at a density of 1,000 cells/well for SHEP or 4,000 cells/well for Kelly or SK—N-BE2 cells, then incubated with indicated concentrations of drug for 72 hours at 37° C. […] CyQUANT reagent mixture (Invitrogen, C7026) was added to thawed plates, then fluorescence was measured. Alternatively, resazurin (Sigma-Aldrich, R7017) was added directly to wells following drug treatment then incubated for 4 hours at 37° C. prior to measuring fluorescence. Data was analyzed using GraphPad Prism software.

EC50: 40.9 nM
SMILES: COc1cc(Nc2ncc3c(n2)-c2ccc(Cl)cc2C(c2c(F)cccc2OC)=NC3)ccc1C(=O)O [MLN8237]
